Reference: PubChem BioAssay AID248 (DTP/NCI, 2004)
The list does not hold the whole screen: it is rich in T/C values a quarter to a half above the control, in often repeated tests (any T/C) and in doses without a T/C. Further doses and runs are listed elsewhere. T/C gives the treated animals as a percentage of the vehicle group. Some entries give survivors of the animals treated and no T/C: the source files T/C as zero there, which appears to mark a toxic dose or a test without result, not a measured value. Some doses without a T/C left all or most animals alive at the check, yet need not have been tolerated: survival well below the control is almost never listed, so the zero probably covers shortened survival too. Counts of survivors are from the toxicity check (mostly the fifth day) where no day follows; animals may have died later. Schedules are NCI's codes, taken here to give the interval after Q, in days (D) or hours (H), and the number of doses after X. Some entries hold several experiments; their values stand side by side, smallest first. For survival time, this PubChem deposit counts one and a half times the control or more as active, and values a quarter to a half above the control carry no call in these data; other NCI protocols may use other cut-offs. Some T/C values are followed by the survivors on the day toxicity was checked, most often the fifth; where none is given, no animal had died by that day.

Tested on: L1210 leukemia ip in BDF1 mice, survival T/C
Experiment: NCI In Vivo Anticancer Drug Screen. Data for tumor model L1210 Leukemia (intraperitoneal) in B6D2F1 (BDF1) mice
Settings: T/C endpoint: mean survival time, higher T/C = longer survival
[1] = dose: 400.0 mg/kg/injection, schedule: Q04DX003 (ip), vehicle: saline with Tween-80
[2] = dose: 200.0 mg/kg/injection, schedule: Q01DX009 (ip), vehicle: saline with Tween-80
[3] = dose: 400.0 mg/kg/injection, schedule: Q01DX009 (ip), vehicle: saline with Tween-80

In the case of `CC(C)OP(=S)(S)OC(C)C.[Cu+2]`, the survivor count (dose: 12.5 mg/kg/injection, schedule: Q04DX003 (ip), vehicle: DMSO) is reported as 2 of 6, the survivor count (dose: 25.0 mg/kg/injection, schedule: Q04DX003 (ip), vehicle: DMSO) is reported as 1 of 6 and the survivor count (dose: 50.0 mg/kg/injection, schedule: Q04DX003 (ip), vehicle: DMSO) is reported as 0 of 6. For the same molecule, the survivor count (dose: 100.0 mg/kg/injection, schedule: Q04DX003 (ip), vehicle: DMSO) was 0 of 6, the survivor count (dose: 200.0 mg/kg/injection, schedule: Q04DX003 (ip), vehicle: DMSO) was 0 of 6 and the survivor count (dose: 400.0 mg/kg/injection, schedule: Q04DX003 (ip), vehicle: DMSO) was 0 of 6.
In the case of `CC(=O)OCC1OC(N2C(=O)/C(=C/c3ccc4ccccc4c3)SC2=S)C(OC(C)=O)C(OC(C)=O)C1OC(C)=O` (stereo not drawn), the survivor count (dose: 100.0 mg/kg/injection, schedule: Q01DX005 (ip), vehicle: other) is reported as 6 of 6, the survivor count (dose: 200.0 mg/kg/injection, schedule: Q01DX005 (ip), vehicle: other) is reported as 5 of 6 and the survivor count (dose: 400.0 mg/kg/injection, schedule: Q01DX005 (ip), vehicle: other) is reported as 6 of 6.
In the case of `BrC1CCCCN1Cc1cc2ccccc2cc1CN1CCCCC1Br` (stereo not drawn), the survivor count (dose: 37.5 mg/kg/injection, schedule: Q01DX001 (ip), vehicle: other) is reported as 0 of 6, the survivor count (dose: 75.0 mg/kg/injection, schedule: Q01DX001 (ip), vehicle: other) is reported as 0 of 6 and the survivor count (dose: 150.0 mg/kg/injection, schedule: Q01DX001 (ip), vehicle: other) is reported as 2 of 6. The survivor count (dose: 300.0 mg/kg/injection, schedule: Q01DX001 (ip), vehicle: other) was 0 of 6.
`O=NN(CCCl)C(=O)Nc1ccc(Br)cn1` was tested, and the T/C (dose: 6.7 mg/kg/injection, schedule: Q01DX009 (ip), vehicle: carboxymethylcellulose (CMC)) was 133 % of control [5 of 6 alive], the T/C (dose: 12.6 mg/kg/injection, schedule: Q01DX009 (ip), vehicle: carboxymethylcellulose (CMC)) was 142 % of control [5 of 6 alive] and the T/C (dose: 19.0 mg/kg/injection, schedule: Q01DX009 (ip), vehicle: carboxymethylcellulose (CMC)) was 137 % of control [5 of 6 alive]. For the same molecule, the T/C (dose: 29.6 mg/kg/injection, schedule: Q01DX009 (ip), vehicle: carboxymethylcellulose (CMC)) was 141 % of control, the T/C (dose: 44.0 mg/kg/injection, schedule: Q01DX001 (ip), vehicle: carboxymethylcellulose (CMC)) was 133 % of control and the T/C (dose: 44.4 mg/kg/injection, schedule: Q01DX001 (ip), vehicle: carboxymethylcellulose (CMC)) was 131 % of control. For the same molecule, the T/C (dose: 44.4 mg/kg/injection, schedule: Q01DX009 (ip), vehicle: carboxymethylcellulose (CMC)) was 131 % of control, the T/C (dose: 66.6 mg/kg/injection, schedule: Q01DX001 (ip), vehicle: carboxymethylcellulose (CMC)) was 142 % of control and the survivor count (dose: 66.6 mg/kg/injection, schedule: Q01DX009 (ip), vehicle: carboxymethylcellulose (CMC)) was 6 of 6. The T/C (dose: 100.0 mg/kg/injection, schedule: Q01DX001 (ip), vehicle: carboxymethylcellulose (CMC)) was 125 % of control, the survivor count (dose: 100.0 mg/kg/injection, schedule: Q01DX009 (ip), vehicle: carboxymethylcellulose (CMC)) was 5 of 6 and the survivor count (dose: 200.0 mg/kg/injection, schedule: Q01DX001 (ip), vehicle: carboxymethylcellulose (CMC)) was 0 of 4. The survivor count (dose: 400.0 mg/kg/injection, schedule: Q01DX001 (ip), vehicle: carboxymethylcellulose (CMC)) was 0 of 4.
For `Oc1ccc2ccccc2c1Sc1c(O)ccc2ccccc12`, the survivor count [1] was 0 of 3.
In the case of `CCCCCCCC/C=C\CCCCCCCC(=O)N1CC[N+](C)(C)CC1`, the survivor count (dose: 80.0 mg/kg/injection, schedule: Q01DX001 (ip), vehicle: saline) is reported as 0 of 6.
`CSCC1OC(n2nnc3c(N)ncnc32)C(O)C1O` (stereo not drawn) was tested, and the survivor count (dose: 400.0 mg/kg/injection, schedule: Q01DX001 (ip), vehicle: Klucel (hydroxypropylcellulose) (HPC)) was 3 of 6.
For `CCN(CC)CCOc1ccc(/C(=C(\Cl)c2ccccc2)c2ccccc2)cc1`, the T/C (dose: 25.0 mg/kg/injection, schedule: Q04DX002 (ip), vehicle: saline) was 132 % of control, the survivor count (dose: 100.0 mg/kg/injection, schedule: Q04DX002 (ip), vehicle: saline) was 3 of 3 and the survivor count (dose: 200.0 mg/kg/injection, schedule: Q04DX002 (ip), vehicle: saline) was 2 of 3. For the same molecule, the survivor count (dose: 400.0 mg/kg/injection, schedule: Q04DX002 (ip), vehicle: saline) was 0 of 3.
For `Cc1n[nH]c(=S)[nH]c1=S`, the survivor count (dose: 200.0 mg/kg/injection, schedule: Q04DX003 (ip), vehicle: saline with Tween-80) was 2 of 6 and the survivor count [1] was 0 of 6.
For `COC(=O)C1=CN=NC1=[N+]=[N-]`, the survivor count (dose: 40.0 mg/kg/injection, schedule: Q01DX001 (ip), vehicle: saline) was 0 of 6, the survivor count (dose: 75.0 mg/kg/injection, schedule: Q01DX001 (ip), vehicle: saline) was 0 of 6 and the survivor count (dose: 150.0 mg/kg/injection, schedule: Q01DX001 (ip), vehicle: saline) was 0 of 6. For the same molecule, the survivor count (dose: 300.0 mg/kg/injection, schedule: Q01DX001 (ip), vehicle: saline) was 0 of 6.
`CC(C)=CCC/C(C)=C/CC/C(C)=C/CC(CCN(C)C)C(=O)OC/C=C(\C)CCC=C(C)C` (stereo not drawn) was tested, and the survivor count (dose: 100.0 mg/kg/injection, schedule: Q01DX009 (ip), vehicle: saline with Tween-80) was 0 of 6, the survivor count [2] was 3 of 6 and the survivor count [3] was 5 of 6.
`S=C(NCc1cccc(Cl)c1)Nc1ccccc1` was tested, and the survivor count (dose: 100.0 mg/kg/injection, schedule: Q01DX009 (ip), vehicle: Klucel (hydroxypropylcellulose) (HPC)) was 6 of 6, the survivor count (dose: 200.0 mg/kg/injection, schedule: Q01DX009 (ip), vehicle: Klucel (hydroxypropylcellulose) (HPC)) was 6 of 6 and the survivor count (dose: 400.0 mg/kg/injection, schedule: Q01DX009 (ip), vehicle: Klucel (hydroxypropylcellulose) (HPC)) was 1 of 6.
For `COc1ccc2c(c1OC)C1C3CC=CC3C2C2=[N+]1CCc1cc3c(cc12)OCO3` (stereo not drawn), the survivor count (dose: 25.0 mg/kg/injection, schedule: Q01DX009 (ip), vehicle: saline) was 3 of 6 and the survivor count (dose: 50.0 mg/kg/injection, schedule: Q01DX009 (ip), vehicle: saline) was 0 of 6.
With `CCN=C(c1ccc(NC(=O)c2ccc(C(=O)Nc3ccc(C(=NCC)N(CC)C(=O)NC(C)C)cc3)cc2)cc1)N(CC)C(=O)NC(C)C` the survivor count (dose: 12.0 mg/kg/injection, schedule: Q01DX015 (ip), vehicle: methylcellulose (MC)) was 5 of 6, the survivor count (dose: 50.0 mg/kg/injection, schedule: Q01DX015 (ip), vehicle: methylcellulose (MC)) was 0 of 6 and the survivor count (dose: 100.0 mg/kg/injection, schedule: Q01DX015 (ip), vehicle: methylcellulose (MC)) was 0 of 6. For the same molecule, the survivor count (dose: 200.0 mg/kg/injection, schedule: Q01DX015 (ip), vehicle: methylcellulose (MC)) was 0 of 6 and the survivor count (dose: 400.0 mg/kg/injection, schedule: Q01DX015 (ip), vehicle: methylcellulose (MC)) was 0 of 6.
For `C1#CCCCCCC#CCCCC1`, the survivor count (dose: 225.0 mg/kg/injection, schedule: Q01DX009 (ip), vehicle: acetone) was 0 of 6, the survivor count (dose: 300.0 mg/kg/injection, schedule: Q01DX001 (ip), vehicle: acetone) was 3 of 6 and the survivor count (dose: 340.0 mg/kg/injection, schedule: Q01DX009 (ip), vehicle: acetone) was 0 of 6.
With `CCC[CH2][Hg][Cl]` the survivor count (dose: 25.0 mg/kg/injection, schedule: Q01DX009 (ip), vehicle: saline with Tween-80) was 0 of 6, the survivor count (dose: 100.0 mg/kg/injection, schedule: Q04DX003 (ip), vehicle: Klucel (hydroxypropylcellulose) (HPC)) was 0 of 6 and the survivor count (dose: 200.0 mg/kg/injection, schedule: Q04DX003 (ip), vehicle: Klucel (hydroxypropylcellulose) (HPC)) was 0 of 6. For the same molecule, the survivor count (dose: 400.0 mg/kg/injection, schedule: Q04DX003 (ip), vehicle: Klucel (hydroxypropylcellulose) (HPC)) was 0 of 6.
In the case of `CCCCCCCCCCCCCC(=O)N(CCC)CCC`, the survivor count (dose: 400.0 mg/kg/injection, schedule: Q01DX009 (ip), vehicle: carboxymethylcellulose (CMC)) is reported as 5 of 6 and 3 of 3.
With `CC/C=C/N1CCCCC1` the survivor count [2] was 1 of 6 and the survivor count [3] was 0 of 6.
`NC(=S)N/N=C/c1cc(-c2cccc(N)c2)ccn1` was tested, and the T/C (dose: 75.0 mg/kg/injection, schedule: Q01DX009 (ip), vehicle: saline with Tween-80) was 125 % of control.
